Experimental data as given in PubChem BioAssay AID208 (DTP/NCI, 2004).
The list shows only some results of the screen, not a fair sample: it gathers tests that were run many times, whatever their T/C, doses with no T/C, and many T/C values between a quarter and a half above the control. Other doses and runs of a compound stand elsewhere. T/C gives the treated animals as a percentage of the vehicle group. Schedule codes are those of the source, taken here to give the interval after Q, in days (D) or hours (H), and the number of doses after X. Some values lie below zero, which means that the treated tumours became smaller. Some entries were tested several times; the values are given in rising order. Some T/C values are followed by the survivors on the day toxicity was checked, most often the fifth; without a count, all were alive then. Some doses have a count of surviving animals in place of a T/C: the source files T/C as zero there, which appears to mark a toxic dose or a test without result, not a measured value. Counts of survivors are from the toxicity check (mostly the fifth day) where no day follows; animals may have died later.

Test system: HT29 intrarenal xenograft, nude mice, tumor weight change
Experiment: NCI In Vivo Anticancer Drug Screen. Data for tumor model HT29;CX-1 Human Adenocarcinoma (MER+) (intrarenal inoculation) in NU/NU BALB/C (nude) mice
Settings: T/C endpoint: mean tumor weight change, higher T/C = larger tumour
Method: The antitumor activity of compounds was measured in mice bearing transplantable tumors. Survival or tumor size were measured and the results are expressed as the measurement made in the treated group (T) divided by the measurement made in the vehicle treated control group (C). The tumor model used in this assay is HT29;CX-1 Human Adenocarcinoma (MER+) (intrarenal inoculation) in NU/NU BALB/C (nude) mice

[1] = dose: 150.0 mg/kg/injection, schedule: Q04DX004 (sc), vehicle: saline, evaluated on day 15

**Q.** How did the survivor count (dose: 3.75 mg/kg/injection, schedule: Q01DX010 (sc), vehicle: saline with Tween-80) turn out when `Nc1nc(=S)c2ncn(C3CC(O)C(CO)O3)c2[nH]1` (stereo unspecified) was run?
**A.** The survivor count was 0 of 6 on day 11.

**Q.** And the survivor count (dose: 7.5 mg/kg/injection, schedule: Q01DX010 (sc), vehicle: saline with Tween-80)?
**A.** Its survivor count is 0 of 6 on day 11.

**Q.** And the survivor count (dose: 15.0 mg/kg/injection, schedule: Q01DX010 (sc), vehicle: saline with Tween-80)?
**A.** Its survivor count is 0 of 6 on day 11.

**Q.** For `c1ccc2c(c1)-c1ccccc1C1NC21` (stereo unspecified), which survivor count (dose: 150.0 mg/kg/injection, schedule: Q04DX004 (sc), vehicle: saline with Tween-80) is on record?
**A.** The survivor count was 0 of 6 on day 15.

**Q.** What about the survivor count (dose: 300.0 mg/kg/injection, schedule: Q04DX004 (sc), vehicle: saline with Tween-80) of the same molecule?
**A.** The survivor count was 0 of 6 on day 15.

**Q.** What about the survivor count (dose: 600.0 mg/kg/injection, schedule: Q04DX004 (sc), vehicle: saline with Tween-80) of the same molecule?
**A.** Its survivor count is 0 of 6 on day 15.

**Q.** Which T/C (dose: 75.0 mg/kg/injection, schedule: Q04DX004 (sc), vehicle: Klucel (hydroxypropylcellulose) (HPC), evaluated on day 15) does the source give for `CC1CCC(n2cnc3c(Cl)ncnc32)O1` (stereo unspecified) here?
**A.** The T/C was 145 % of control.

**Q.** `CO[C@@]12[C@H](COC(N)=O)C3=C(C(=O)C(C)=C(N)C3=O)N1C[C@@H]1N[C@@H]12` was tested. Which T/C (dose: 2.0 mg/kg/injection, schedule: Q04DX004 (ip), vehicle: saline, evaluated on day 15) did it give?
**A.** Its T/C is -36, 6, 15, 22 % of control.

**Q.** What about the T/C (dose: 3.0 mg/kg/injection, schedule: Q04DX004 (ip), vehicle: saline, evaluated on day 15) of the same molecule?
**A.** Its T/C is -84, -46, 3 % of control.

**Q.** And the T/C (dose: 4.5 mg/kg/injection, schedule: Q04DX004 (ip), vehicle: saline, evaluated on day 15)?
**A.** The T/C was -90 [3 of 4 alive on day 15], -78, -70 [5 of 6 alive on day 15], -2 % of control.

**Q.** What about the survivor count (dose: 6.0 mg/kg/injection, schedule: Q04DX004 (sc), vehicle: saline) of the same molecule?
**A.** The survivor count was 1 of 6 on day 15.

**Q.** What about the survivor count (dose: 12.0 mg/kg/injection, schedule: Q04DX004 (sc), vehicle: saline) of the same molecule?
**A.** The survivor count was 0 of 3 on day 15 and 0 of 6 on day 15.

**Q.** For `O=c1[nH]c(=O)n([C@H]2CCCO2)cc1F`, which survivor count (dose: 104.9 mg/kg/injection, schedule: Q01DX010 (ip), vehicle: Klucel (hydroxypropylcellulose) (HPC)) is on record?
**A.** Its survivor count is 2 of 6 on day 15.

**Q.** What about the survivor count (dose: 237.4 mg/kg/injection, schedule: Q01DX010 (ip), vehicle: Klucel (hydroxypropylcellulose) (HPC)) of the same molecule?
**A.** The survivor count was 0 of 6 on day 15.

**Q.** What about the survivor count (dose: 355.9 mg/kg/injection, schedule: Q01DX010 (ip), vehicle: Klucel (hydroxypropylcellulose) (HPC)) of the same molecule?
**A.** Its survivor count is 0 of 6 on day 15.

**Q.** And the survivor count (dose: 533.0 mg/kg/injection, schedule: Q01DX010 (ip), vehicle: Klucel (hydroxypropylcellulose) (HPC))?
**A.** Its survivor count is 0 of 6 on day 15.

**Q.** And the survivor count (dose: 533.0 mg/kg/injection, schedule: Q04DX004 (ip), vehicle: Klucel (hydroxypropylcellulose) (HPC))?
**A.** The survivor count was 1 of 6 on day 15.

**Q.** What about the survivor count (dose: 800.0 mg/kg/injection, schedule: Q01DX010 (ip), vehicle: Klucel (hydroxypropylcellulose) (HPC)) of the same molecule?
**A.** The survivor count was 0 of 6 on day 15.

**Q.** What about the survivor count (dose: 800.0 mg/kg/injection, schedule: Q04DX004 (ip), vehicle: Klucel (hydroxypropylcellulose) (HPC)) of the same molecule?
**A.** The survivor count was 0 of 6 on day 15.

**Q.** And the survivor count (dose: 1199.0 mg/kg/injection, schedule: Q04DX004 (ip), vehicle: Klucel (hydroxypropylcellulose) (HPC))?
**A.** The survivor count was 0 of 6 on day 15.

**Q.** For `CCOC(=O)c1ccc(NC(=O)Nc2nncs2)cc1`, which T/C (dose: 400.0 mg/kg/injection, schedule: Q01DX010 (sc), vehicle: distilled water + Tween-80, evaluated on day 11) is on record?
**A.** The T/C was 140 % of control.

**Q.** Which T/C (dose: 100.0 mg/kg/injection, schedule: Q04DX004 (ip), vehicle: Klucel (hydroxypropylcellulose) (HPC), evaluated on day 15) does the source give for `CN(C)/N=N/c1nc[nH]c1C(N)=O` here?
**A.** The T/C was 144 % of control.

**Q.** And the T/C (dose: 150.0 mg/kg/injection, schedule: Q04DX004 (ip), vehicle: Klucel (hydroxypropylcellulose) (HPC), evaluated on day 15)?
**A.** The T/C was 140 % of control.

**Q.** And the T/C (dose: 225.0 mg/kg/injection, schedule: Q04DX004 (ip), vehicle: Klucel (hydroxypropylcellulose) (HPC), evaluated on day 15)?
**A.** The T/C was 139 % of control.

**Q.** And the T/C (dose: 225.0 mg/kg/injection, schedule: Q04DX004 (ip), vehicle: saline, evaluated on day 15)?
**A.** Its T/C is 127 % of control.

**Q.** What does the source list for `C=C(C)[C@@H]1CCc2c(O)c(O)c(=O)cc(C)c2C1`?
**A.** T/C [1]: 133 % of control; T/C (dose: 300.0 mg/kg/injection, schedule: Q04DX004 (sc), vehicle: saline, evaluated on day 15): 133 % of control; T/C (dose: 600.0 mg/kg/injection, schedule: Q04DX004 (sc), vehicle: saline, evaluated on day 15): 131 % of control

**Q.** Which results are given for `O=C(O)CC(NC(=O)CP(=O)(O)O)C(=O)O` (stereo unspecified)?
**A.** survivor count (dose: 400.0 mg/kg/injection, schedule: Q01DX010 (sc), vehicle: saline): 1 of 2 on day 11; survivor count (dose: 800.0 mg/kg/injection, schedule: Q01DX010 (sc), vehicle: saline): 0 of 2 on day 11

**Q.** Which results are given for `CCC1OC(OC)C=CC1=O` (stereo unspecified)?
**A.** T/C [1]: 126 % of control [4 of 6 alive on day 15]; survivor count (dose: 300.0 mg/kg/injection, schedule: Q04DX004 (sc), vehicle: saline): 0 of 6 on day 15; survivor count (dose: 600.0 mg/kg/injection, schedule: Q04DX004 (sc), vehicle: saline): 0 of 6 on day 15; survivor count (dose: 1200.0 mg/kg/injection, schedule: Q04DX004 (sc), vehicle: saline): 0 of 6 on day 15

**Q.** `COc1cc(Cc2nccc3cc(OC)c(OC)cc23)c(C(C)=O)c(OC)c1` was tested. Which T/C (dose: 40.0 mg/kg/injection, schedule: Q01DX010 (sc), vehicle: saline, evaluated on day 11) did it give?
**A.** Its T/C is 127 % of control.

**Q.** What about the survivor count (dose: 40.0 mg/kg/injection, schedule: Q01DX010 (sc), vehicle: saline) of the same molecule?
**A.** Its survivor count is 2 of 5 on day 11.

**Q.** What about the survivor count (dose: 80.0 mg/kg/injection, schedule: Q01DX010 (sc), vehicle: saline) of the same molecule?
**A.** Its survivor count is 1 of 6 on day 11.

**Q.** And the survivor count (dose: 160.0 mg/kg/injection, schedule: Q01DX010 (sc), vehicle: saline)?
**A.** Its survivor count is 0 of 6 on day 11 and 2 of 6 on day 11.

**Q.** What about the survivor count (dose: 320.0 mg/kg/injection, schedule: Q01DX010 (sc), vehicle: saline) of the same molecule?
**A.** The survivor count was 0 of 6 on day 11.

**Q.** Which T/C (dose: 400.0 mg/kg/injection, schedule: Q01DX010 (ip), vehicle: saline with Tween-80, evaluated on day 11) does the source give for `Cc1ccoc1` here?
**A.** The T/C was 134 % of control [5 of 6 alive on day 11].

**Q.** What does the source list for `O=c1[nH]cc(F)c(=O)[nH]1`?
**A.** T/C (dose: 50.0 mg/kg/injection, schedule: Q04DX004 (ip), vehicle: saline, evaluated on day 15): 9, 27, 52, 60 % of control [4 of 5 alive on day 15]; T/C (dose: 75.0 mg/kg/injection, schedule: Q04DX004 (ip), vehicle: saline, evaluated on day 15): 21 [5 of 6 alive on day 15], 24, 35, 48 % of control; survivor count (dose: 75.0 mg/kg/injection, schedule: Q04DX004 (ip), vehicle: saline): 3 of 6 on day 15; T/C (dose: 112.0 mg/kg/injection, schedule: Q04DX004 (ip), vehicle: saline, evaluated on day 15): 16 [4 of 6 alive on day 15] and 32 % of control [5 of 6 alive on day 15]; survivor count (dose: 112.0 mg/kg/injection, schedule: Q04DX004 (ip), vehicle: saline): 1 of 6 on day 15, 2 of 5 on day 15, 3 of 6 on day 15

**Q.** For `O=C1N[C@@H]2C(=C[C@H](O)[C@@H](O)[C@H]2O)c2cc3c(c(O)c21)OCO3`, which survivor count (dose: 10.0 mg/kg/injection, schedule: Q04DX004 (sc), vehicle: saline with Tween-80) is on record?
**A.** The survivor count was 1 of 6 on day 15.

**Q.** And the survivor count (dose: 20.0 mg/kg/injection, schedule: Q04DX004 (sc), vehicle: saline with Tween-80)?
**A.** The survivor count was 0 of 6 on day 15.

**Q.** And the survivor count (dose: 40.0 mg/kg/injection, schedule: Q04DX004 (sc), vehicle: saline with Tween-80)?
**A.** The survivor count was 0 of 6 on day 15.

**Q.** How did the survivor count (dose: 1600.0 mg/kg/injection, schedule: Q04DX004 (sc), vehicle: Klucel (hydroxypropylcellulose) (HPC)) turn out when `C[C@H]1C[C@@H]2[C@H]([C@@H](O)C[C@@]3(C)[C@H]2CC[C@]3(O)C(=O)CO)[C@@]2(C)C=CC(=O)C=C12` was run?
**A.** The survivor count was 1 of 6 on day 15.

**Q.** For `OCC1OC(n2cnc3c(=S)nc[nH]c32)C(O)C1O` (stereo unspecified), which T/C (dose: 1200.0 mg/kg/injection, schedule: Q04DX004 (sc), vehicle: saline, evaluated on day 15) is on record?
**A.** Its T/C is 149 % of control.

**Q.** For `CC(=O)Oc1[nH]c(=O)c2cccc3c2c1CCC3`, which T/C (dose: 600.0 mg/kg/injection, schedule: Q04DX004 (sc), vehicle: saline with Tween-80, evaluated on day 15) is on record?
**A.** Its T/C is 138 % of control.

**Q.** And the T/C (dose: 1200.0 mg/kg/injection, schedule: Q04DX004 (sc), vehicle: saline with Tween-80, evaluated on day 15)?
**A.** Its T/C is 140 % of control.

**Q.** Which T/C (dose: 4.0 mg/kg/injection, schedule: Q04DX004 (ip), vehicle: saline, evaluated on day 15) does the source give for `N[C@@H](Cc1ccc(N(CCCl)CCCl)cc1)C(=O)O` here?
**A.** Its T/C is 13, 53, 88, 129 % of control.

**Q.** And the T/C (dose: 6.0 mg/kg/injection, schedule: Q04DX004 (ip), vehicle: saline, evaluated on day 15)?
**A.** Its T/C is -41, 32, 35, 117 % of control.

**Q.** What about the survivor count (dose: 8.0 mg/kg/injection, schedule: Q01DX010 (sc), vehicle: saline) of the same molecule?
**A.** Its survivor count is 0 of 3 on day 11.

**Q.** And the T/C (dose: 9.0 mg/kg/injection, schedule: Q04DX004 (ip), vehicle: saline, evaluated on day 15)?
**A.** Its T/C is -37, 11, 41, 65 % of control [4 of 5 alive on day 15].
